Source: patent US10525024B2, “Methods for rescuing phenobarbital-resistance of seizures by ANA-12 or ANA-12 in combination with CLP290” (THE JOHNS HOPKINS UNIVERSITY, priority 2014, dated 2020)
Entries after “also recorded” stand apart in the source; their conditions may differ. For at least one compound, name, drawing or mass did not settle the structure.

System: CD1 mice with permanent unilateral carotid-ligation (acute ischemic seizures)
Test: Video-EEG seizure burden after carotid ligation at P7, P10, P12 with PB and adjunct BTN (Example 2)
Assay type: in vivo, mouse
Conditions: for anti-seizure efficacy: PB 25 mg/kg IP

How did the “number of ictal events” value (P7, 2nd h recording (p=0.04)) turn out when `CCC1(c2ccccc2)C(=O)NC(=O)NC1=O` [PB, phenobarbital] was run?
Its value is “significantly reducing the number of ictal events”.

What about the “scores of electrographic (grade 0-2) and convulsive (grade 3-6) seizures” value (P7, pairwise t-tests) of the same compound?
Its value is “failed to curb either”.

What about the “anti-seizure effect on total time spent seizing on EEG” value (P7, PB 25 mg/kg at 1 h, BTN 0.1-0.2 mg/kg at 2 h post-ligation) of the same compound?
The value was “failed to have any significant anti-seizure effect; also recorded: inefficacious”.

What about the anti-seizure efficacy (P10) of the same compound?
Its anti-seizure efficacy is “significantly efficacious”.

What about the “scores of electrographic (grade 0-2) and convulsive (grade 3-6) seizures” value (P10 and P12, pairwise t-tests) of the same compound?
The value was “significantly dropped the scores of both electrographic and convulsive seizures”.

What about the anti-seizure efficacy (P12) of the same compound?
The anti-seizure efficacy was “significantly efficacious”.
